According to patent publication US20240294650A1:
Changes are numbered by the printed parent chain. Results are given in words; binding and its absence hold for the method and conditions named. Some entries that bind do so weakly or less than the wild type. For some of these results: Sequences can lack the tags named with a protein.

T1: His tag-conjugated recombinant Gas6 (human) (UniProt Q14393)
T1 sequence (looked up): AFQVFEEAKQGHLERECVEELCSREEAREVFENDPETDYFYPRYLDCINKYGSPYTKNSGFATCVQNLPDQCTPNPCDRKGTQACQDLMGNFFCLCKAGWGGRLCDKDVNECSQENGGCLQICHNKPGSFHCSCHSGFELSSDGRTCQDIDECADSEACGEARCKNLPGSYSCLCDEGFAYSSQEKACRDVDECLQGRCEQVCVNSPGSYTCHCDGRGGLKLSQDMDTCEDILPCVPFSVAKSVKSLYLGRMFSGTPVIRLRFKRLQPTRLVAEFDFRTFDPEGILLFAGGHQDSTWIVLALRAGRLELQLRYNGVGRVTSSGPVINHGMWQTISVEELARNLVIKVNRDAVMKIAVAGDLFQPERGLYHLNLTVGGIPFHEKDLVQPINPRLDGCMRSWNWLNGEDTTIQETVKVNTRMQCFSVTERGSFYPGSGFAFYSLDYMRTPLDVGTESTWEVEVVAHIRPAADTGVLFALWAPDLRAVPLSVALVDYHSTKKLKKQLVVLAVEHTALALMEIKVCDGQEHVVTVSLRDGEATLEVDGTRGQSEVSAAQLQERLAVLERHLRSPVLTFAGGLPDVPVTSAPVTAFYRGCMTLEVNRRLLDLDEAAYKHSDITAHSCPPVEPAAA

B1: MTK-231 (antibody, human IgG1, V domains shown)
VH: DVQLQESGPGLVKPSQSLSLTCSVTGYSITSGYYWNWIRQFPGNKLEWMGYISYDGTYNYHPSLKNRISITRDTSKNQFFLTLNSVTTEDTATFYCTRGGGYWGQGTSVTVSS
VL: DVVMTQTPLSLPVSLGDQASISCRSSQSLVHSDGNTYLHWYLQKPGQSPKLLIYKVSNRFSGVPDRFSGSGSGTDFTLKISRLEAEDLGIYFCSQTTHIPLTFGSGTKLEIK
B2: MTK-204 (antibody, human IgG1, V domains shown)
VH: EVQLVESGGGLVKPGGSLKLSCAASGFTFSDYGMHWVRQAPEKGLEWVAYISSGTSTIYYEDTVKGRFTISRDNAKNTLFLQMTSLRSEDTAMYYCARGGLLFDYWGQGTTLTVSS
VL: NIMMTQSPSSLAVSAGEKVTMSCKSSQSVLYSSNQKNYLAWYQQKPGQSPKLLIQWASTRESGVPDRFTGSGSETDFTLTIRSVQAEDLAVYYCHQYFSSWTFGGGTKLEIK
B3: MTK-222 (antibody, human IgG1, V domains shown)
VH: QVQLQQSGADLMKPGASVKLSCKATGYTFTGYWIEWVKQRPGHGLEWIGEILTGSGSSNYNEKFKGKATFTADSSSNTAFMQLSSLTTEDSAIYYCAGSYYSNSWFPYWGQGSLVTVSA
VL: DIVLTQSPVSLAVSLGQRATISCRASESVDSYGSSFMHWYQQKPGQPPKLLIYRASSLESGIPARFSGSGSRTDFTLTINPVETDDVATYYCQQSNEDPRTFGGGTKLEIK
B4: MTK-227 (antibody, human IgG1, V domains shown)
VH: EVKLVESGGGLVQPGGSLSLSCAASGFTFTDNYMTWVRQPPGKALEWLGFSRNKANGYTTEYSASVKGRFTISRDSSQSILYLQMNALRAEDSGTYYCARFPPHYYAGGYFDVWGTGTTVTVSS
VL: DIQMTQSPASLSASVGETVTITCRASENIYSYLAWYQQKQGKSPQLLVYNAKTLAEGVPSRFSGSGSGTQFSLKINSLQPADFGSYYCQHYYRTPPTFGGGTKLEIK
B5: MTK-221 (antibody, human IgG1, V domains shown)
VH: QVTLKESGPGMLQSSQTLSLTCSFSGFSLSTSGMGVSWIRQPSGKGLEWLAHIYWDDDKRYNTSLQSRLTISKDTSRNQVFLKITSVDTADTATYFCGRLGAYSAFPYYFDYWGQGTTLTVSS
VL: DIQMTQSPSSLSASLGGKVTITCKASQDIHKHIAWYQHKPGKGPRLLIHYTSTLQPGIPSRFSGSGSGRDYSFSISNLEPEDLATYYCLQYDNLWTFGGGTKLEIK
B6: MTK-206 (antibody, human IgG1, V domains shown)
VH: QVQLQQSGAELARPGASVKMSCKASGYTFTSYTMHWVKQRPGQGLEWIGYINPSSGYIKNSQKFKDKATLTADKSSSTAYMQLSSLTSEDSAVYYCARTVYGYYGSSPDYWGQGTTLTVSS
VL: DIQMTQSPSSLSASLGERVSLTCRASQDIGSNLNWLQQEPDGTIKRLIYATSSLESGVPKRFSGSRSGSDYSLTISSLESEDFVDYYCLQYDSSPWTFGGGTKLEIK
B7: MTK-229 (antibody, human IgG1, V domains shown)
VH: QVQLQQSGPELVKPGASVKISCKASGYEFSRSWMNWVKQRPGKGLEWIGRIYPGDGDTNYKGKLKGQATLTADKSSSTAYMQLSSLTFEDSAVYFCARGGGYYYDSRYEGFVYWGQGTVVTVSA
VL: QIVLTQSPAIMSASPGEEVTMTCSASSSVSYMHWYQQKSGTSPKRWIYDTSKLASGVSGRFSGSGSGTSYSLTISSMEAEDAATYYCQQWSSNPPITFGAGTKLELK
B8: MTK-210 (antibody, human IgG1, V domains shown)
VH: QVQLQQSGPELVKPGASVKISCKASDYEFSRSWMNWVKQRPGKGLEWIGRIYPGDGDTNYNGKFKGKATLTADKSSNTAYMQLNSLTSEDSAVYFCARKGGYYYSISNYFDYWGQGTTLTVSS
VL: QIVLTQSPAIMSASPGVKVTMTCSASSSVSYMHWYQQKPGSSPRLLIYDTSNLASGVPVRFSGSGSGTSYSLTISRMEAEDAATYYCQQWSSYPPYTFGGGTKLEIK
B9: MTK-219 (antibody, human IgG1, V domains shown)
VH: B3 VH with Y27N, S58T, K63R, S74T, F80Y, Y101F, S102T
VL: B3 VL with V9A, S34N, S56Y, S57T, T84A

Experiments:
[1] = target: MerTK N-terminal ECD Half-and-half chimera (human); test: SPR, construct supernatant over immobilised Ab
[2] = target: T1, His tag-conjugated recombinant Gas6 (human); test: ELISA, captured Ab, Gas6-His 1.5 ug/ml, no MerTK
[3] = target: MerTK C-terminal ECD Half-and-half chimera (human); test: SPR, construct supernatant over immobilised Ab

Row | Binder | binding [1] | binding [2] | binding [3]
1 | B1 | binds | binds | –
2 | B2 | binds | – | –
3 | B3 | – | – | binds
4 | B4 | – | – | binds
5 | B5 | – | – | binds
6 | B6 | – | – | binds
7 | B7 | – | – | binds
8 | B8 | – | – | binds
9 | B9 | – | – | binds
